Assay results as given in PubChem BioAssay (NCATS).
Inconclusive results, whose numbers are uncertain, are shown with a selection of clear calls. Potencies of inconclusive entries are doubtful fits and often do not repeat. The source made the active and inactive calls. Calls come from the whole dose curve; as a rule, active = well fitted cell-killing curve with a large enough effect; inconclusive = small, poorly fitted or top-dose-only effect, or effect the other way; inactive = flat fitted curve, though single readings scatter.

test: Identifying Small Molecule Inhibitors of Pancreatic Cancer Stem Cells (SN12C, Spheroid) (AID 1259360); conditions: Potency: SN12C spheroid viability; series mostly up to 46.1 µM; viability (% of control): at the top concentration;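 for viability (% of control): 100% = DMSO-treated cells and 0% = wells without cells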
Outline: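 Adherent (2D) versus sphere (3D) formats; spheres generated 14 d in SCM beforehand. Compound transferred by pin tool after 4 h, 48 h incubation, CellTiter-Glo endpoint.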
Potency is the fitted concentration of half-maximal effect.

Structure (SMILES) | viability (% of control) | Potency
COc1cc2c(N3CCN(C(=O)Nc4ccc(OC(C)C)cc4)CC3)ncnc2cc1OCCCN1CCCCC1 | inactive: 88.4% | –
CC(C)(C)c1cc(NC(=O)Nc2ccc(-c3cn4c(n3)sc3cc(OCCN5CCOCC5)ccc34)cc2)no1 | – | inconclusive: 26.4 µM [cytotoxic, single point]
COc1cc2ncnc(Nc3ccc(F)c(Cl)c3)c2cc1NC(=O)C=CCN1CCCCC1 | – | active: 29.6 µM
CC(C)(O)CCc1ccc(OCc2cc(-c3cccc(OC(F)F)c3)c3ncccc3c2)cc1 | – | inconclusive: 26.4 µM [cytotoxic, single point]
COc1ccccc1-c1cccc(-c2c(O)c3cc(C#N)c(Cl)cc3[nH]c2=O)c1 | – | inconclusive: 11.8 µM [cytotoxic, partial curve, poor fit]
CC(C)c1ccccc1Cc1cc(C(=O)Nc2ccc(S(=O)(=O)c3ccccc3C(C)(C)C)cc2)c(O)c(O)c1O | inactive: 75.8% | –
